{"source": "PubChem BioAssay AID1259308 (NCATS, 2017)", "screen": "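Candidate targets for better recombinant protein yield in mammalian cells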 (primary screen)", "system": "human HEK293 embryonic kidney cells stably expressing firefly luciferase (HEK-CMV-Luc2-Hygro)", "knock-down reagent": "single siRNA against human genes, 0.8 pmol siRNA per well", "timing": "72 h", "detection": "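Reporter luminescence and viable-cell signal on separate replicate plates, given as percent of non-targeting control and median/MAD z-scores, plus per-cell luciferase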", "scale": "total luciferase, z-score and total luciferase, % of control: higher = more reporter protein produced", "hit rule": "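An siRNA counts as active if its total luciferase robust z-score exceeds 3; genes with two or more such siRNAs out of three were retested with fresh siRNAs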", "calls": "active = raised luciferase; inactive = no rise", "note": "Shown is one part, drawn at random, of about 59,000 deposited reagents. About 1,510 of all reagents (2.6%) were called active. 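Calls use total luciferase alone and ignore viability, so some active siRNAs may act by altering cell number.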 Entries without a mark were called inactive. The numbers tell different reagents against one gene apart. Further read-outs or replicates are left out here."}
{"target gene":"DCUN1D3","siRNA no.":1,"total luciferase, z-score":1.46,"total luciferase, % of control":111}
{"target gene":"DCUN1D3","siRNA no.":2,"total luciferase, z-score":2.27,"total luciferase, % of control":127}
{"target gene":"DCUN1D3","siRNA no.":3,"total luciferase, z-score":-0.36,"total luciferase, % of control":74.7}
{"target gene":"CUX2","siRNA no.":1,"total luciferase, z-score":0.406,"total luciferase, % of control":90}
{"target gene":"CUX2","siRNA no.":2,"total luciferase, z-score":-0.465,"total luciferase, % of control":72.6}
{"target gene":"CUX2","siRNA no.":3,"total luciferase, z-score":-0.121,"total luciferase, % of control":79.5}
{"target gene":"GOLGA2","siRNA no.":1,"total luciferase, z-score":-0.565,"total luciferase, % of control":70.6}
{"target gene":"GOLGA2","siRNA no.":2,"total luciferase, z-score":0.955,"total luciferase, % of control":101}
{"target gene":"GOLGA2","siRNA no.":3,"total luciferase, z-score":1.05,"total luciferase, % of control":103}
{"target gene":"UCHL1","siRNA no.":1,"total luciferase, z-score":0.451,"total luciferase, % of control":90.9}
{"target gene":"UCHL1","siRNA no.":2,"total luciferase, z-score":-2.45,"total luciferase, % of control":33.2}
{"target gene":"UCHL1","siRNA no.":3,"total luciferase, z-score":-1.23,"total luciferase, % of control":57.3}
{"target gene":"KIF15","siRNA no.":1,"total luciferase, z-score":-0.299,"total luciferase, % of control":75.9}
{"target gene":"KIF15","siRNA no.":2,"total luciferase, z-score":0.567,"total luciferase, % of control":93.2}
{"target gene":"KIF15","siRNA no.":3,"total luciferase, z-score":-1.22,"total luciferase, % of control":57.5}
{"target gene":"ADGRE2","siRNA no.":1,"total luciferase, z-score":-0.0657,"total luciferase, % of control":80.6}
{"target gene":"ADGRE2","siRNA no.":2,"total luciferase, z-score":0.287,"total luciferase, % of control":87.6}
{"target gene":"ADGRE2","siRNA no.":3,"total luciferase, z-score":0.482,"total luciferase, % of control":91.5}
{"target gene":"NAT1","siRNA no.":1,"total luciferase, z-score":-0.546,"total luciferase, % of control":71}
{"target gene":"NAT1","siRNA no.":2,"total luciferase, z-score":-1.52,"total luciferase, % of control":51.7}
{"target gene":"NAT1","siRNA no.":3,"total luciferase, z-score":2.95,"total luciferase, % of control":141}
{"target gene":"TRIM37","siRNA no.":1,"total luciferase, z-score":-0.0931,"total luciferase, % of control":80}
{"target gene":"TRIM37","siRNA no.":2,"total luciferase, z-score":-0.26,"total luciferase, % of control":76.7}
{"target gene":"TRIM37","siRNA no.":3,"total luciferase, z-score":-0.458,"total luciferase, % of control":72.8}
{"target gene":"GJC2","siRNA no.":1,"total luciferase, z-score":-1.23,"total luciferase, % of control":57.5}
{"target gene":"GJC2","siRNA no.":2,"total luciferase, z-score":0.936,"total luciferase, % of control":101}
{"target gene":"GJC2","siRNA no.":3,"total luciferase, z-score":-1.12,"total luciferase, % of control":59.7}
{"target gene":"SYNPO2L","siRNA no.":1,"total luciferase, z-score":0.152,"total luciferase, % of control":84.9}
{"target gene":"SYNPO2L","siRNA no.":2,"total luciferase, z-score":-0.434,"total luciferase, % of control":73.3}
{"target gene":"SYNPO2L","siRNA no.":3,"total luciferase, z-score":-0.84,"total luciferase, % of control":65.2}
{"target gene":"MCM8","siRNA no.":1,"total luciferase, z-score":-0.827,"total luciferase, % of control":65.4}
{"target gene":"MCM8","siRNA no.":2,"total luciferase, z-score":1.43,"total luciferase, % of control":110}
{"target gene":"MCM8","siRNA no.":3,"total luciferase, z-score":0.581,"total luciferase, % of control":93.4}

Single entries from the list.
Under “total luciferase, z-score”, GOLGA2 #2 reads 0.955
UCHL1 #2, total luciferase, % of control: 33.2
